# In PubChem BioAssay AID651595 (National Center for Advancing Translational Sciences (NCATS), 2012):
# Screen size: about 1,100 compounds; fewer than 10 were called active. Another 6% or so got no clear call; they are omitted. Calls come from the whole dose curve; as a rule, active = well fitted cell-killing curve with a large enough effect; inconclusive = small, poorly fitted or top-dose-only effect; inactive = flat fitted curve, though single readings scatter. Some of the results follow.
# Assay: qHTS of Nrf2 Activators: Hit Validation in Cytotox Assay;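 note: compound exposure lasted 24 hours before the ATP readout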; for activity change, negative = cytotoxicity: 0% is about no effect
# Conditions: Cell viability counter-screen for Nrf2 activator hits; series mostly up to 46.1 µM; activity change, negative = cytotoxicity: at the top concentration
# In short: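 Intracellular ATP measured with CellTiter-Glo luminescence (30 min, room temperature) as a viability read-out. Cells: AREc32_fluc, cultured overnight before 24 h compound exposure at 7 concentrations, 37 °C; activity here marks cytotoxicity.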
# Potency is the fitted concentration of half-maximal effect.
SMILES,"activity change, negative = cytotoxicity",Potency
Cc1ccc(S(=O)(=O)c2nc(S(C)(=O)=O)sc2N2CCN(C)CC2)cc1,inactive: 9.52%,
Cc1ccccc1OCC(=O)Nc1ccccc1CO,inactive: 11.9%,
COc1ccc(C(C#N)=C2C=CC(=NO)C=C2)cc1,inactive: -1.04%,
O=C1CC(C(=O)Nc2ccc(Cl)c(Cl)c2)S/C(=N\N=C\c2ccco2)N1 (stereo not drawn),inactive: 11.6%,
O=[N+]([O-])c1cccc(-c2nnc(-c3ccccc3)o2)c1,inactive: 5.23%,
O=C(/C=C/c1ccco1)NCC(=O)N/N=C/c1ccc(Cl)cc1,inactive: 3.22%,
Clc1ccc2nc(-c3ccco3)c(Cc3ccccc3)n2c1,inactive: -25.8%,
Nn1c(-c2ccccc2)nc2cc(Cl)ccc2c1=O,inactive: -1.16%,
O=C(c1ccco1)c1cc2c(ccc3ccccc32)oc1=O,inactive: 11.4%,
Cc1nc2ccccc2c(=O)n1NCc1cc(Br)cs1,inactive: -2.41%,
COc1ccccc1Nc1nc2ccccc2n2cnnc12,inactive: 7.57%,
O=C(/C=C/c1ccco1)Nc1ccc(Cl)c(-c2nc3cc(Cl)ccc3o2)c1,inactive: -23.6%,
COC(=O)[C@@H]1Cc2c([nH]c3ccccc23)C(C)(C)N1C(=O)CCl,inactive: 19.8%,
CC(C)CCn1c(O)c(N=Nc2ccccn2)c2ccccc21,inactive: 5.08%,
O=C(CN1CCN(Cc2ccccc2Cl)CC1)N/N=C/C=C/c1ccco1,inactive: -2.05%,
CCCc1nc([N+](=O)[O-])c(S(=O)(=O)c2ccccc2)n1CC(C)C,inactive: -0.414%,
c1coc(-c2ccnc3nc(-n4cccc4)nn23)c1,inactive: 6.84%,
COc1nc(-c2ccccc2)cc(-c2ccccc2)n1,inactive: 0.23%,
COc1cc(OC)c(NC(=O)c2ccco2)cc1Cl,inactive: -3.27%,
O=C(CCS(=O)(=O)c1ccccc1)Nc1nc2ccc(F)cc2s1,inactive: 17.2%,
CC1Oc2ccccc2OC1C(=O)Nc1ccccn1 (stereo not drawn),inactive: 10.4%,
O=C(CN1CCCCC1)Nc1nnc(-c2ccccc2)s1,inactive: 0.807%,
Oc1c(-c2cc(-c3ccco3)[nH]n2)ccc2ccccc12,inactive: -16.1%,
O=C(O)CCCCCN1C(=O)/C(=C\c2ccncc2)SC1=S,inactive: -4.34%,

# A second format for some results above:
SMILES	activity change, negative = cytotoxicity	Potency
COc1nc(-c2ccccc2)cc(-c2ccccc2)n1	inactive: 0.23%	
COc1cc(OC)c(NC(=O)c2ccco2)cc1Cl	inactive: -3.27%	
O=C(CCS(=O)(=O)c1ccccc1)Nc1nc2ccc(F)cc2s1	inactive: 17.2%	
CC1Oc2ccccc2OC1C(=O)Nc1ccccn1 (stereo not drawn)	inactive: 10.4%	

# Carrying on.

SMILES,"activity change, negative = cytotoxicity",Potency
c1cc2c3c(cccc3c1)NN=N2,inactive: 0.637%,
CCCNC(=O)c1ccc(S(=O)(=O)c2ccc(OC)cc2)c([N+](=O)[O-])c1,inactive: 6.12%,
O=C(Nc1ccccc1F)c1ccc(-c2cccc([N+](=O)[O-])c2)o1,inactive: -1.55%,
O=C(N=Nc1c(O)[nH]c2ccccc12)c1ccco1,inactive: -20.5%,
COc1ccccc1NC(=O)/C(C#N)=C/C=C/c1ccco1,inactive: -3.13%,
Cc1c(=O)n(OCc2ccc(Cl)cc2)c2ccccc2[n+]1[O-],inactive: -2.39%,
Cc1ccc(-c2nc3sc(C#N)c(N)n3c(=O)c2C#N)cc1,inactive: -0.164%,
CC(C)=NNc1cnnc2ccc([N+](=O)[O-])cc12,inactive: -2.1%,
O=c1c(-c2ccco2)[n+]([O-])c2ccccc2n1OCc1ccccc1,inactive: 4.78%,
CCOc1cc(/C=C/c2ccc3cccc([N+](=O)[O-])c3n2)cc(Cl)c1O,inactive: -14.7%,
Cc1[nH]c2ccccc2c1N=Nc1ccccc1C(=O)O,inactive: 3.08%,
O=C(NC(=S)Nc1cc(C(F)(F)F)ccc1Cl)c1ccccc1,inactive: -2.22%,
O=[N+]([O-])c1cnccc1-n1nnc2ccccc21,inactive: -2.62%,
COc1cc2c(cc1OC)/C(=C/c1ccc(Cl)cc1)C(=O)OC2,inactive: 5.96%,
Clc1ccc(C=Cc2ccccn2)cc1,inactive: 1.25%,
Cc1cccc(NC(=O)C2CC(=O)N/C(=N/N=C/c3ccco3)S2)c1 (stereo not drawn),inactive: 3.66%,
CNc1ccc(Br)cc(C(=O)/C=C/c2ccc(Cl)cc2Cl)c1=O,inactive: 14.3%,
Oc1ccc(Br)cc1-c1cc(-c2ccco2)[nH]n1,inactive: -6.79%,
CCOc1cc2ccccc2cc1C(=O)Nc1ccccn1,inactive: 9.51%,
O=C(Nc1ccccc1[N+](=O)[O-])C1COc2ccccc2O1 (stereo not drawn),inactive: 1.87%,
Cc1ccc(S(=O)(=O)/N=C(/NNC(=O)c2cccc(Cl)c2)c2ccccc2)cc1,inactive: -0.738%,
OCC1OC(n2cnc3c(NCc4ccccc4O)ncnc32)C(O)C1O (stereo not drawn),,active: 5.17 µM
N#Cc1cccn1-c1nccc(-c2cccs2)n1,inactive: 6.19%,
Cc1cc(-c2cccs2)nc(-n2cccc2)n1,inactive: 4.06%,

SMILES,"activity change, negative = cytotoxicity",Potency
O=c1[nH]ncc(N/N=C\c2cccs2)c1Cl,inactive: 2.39%,
CN1CCCC1CCNc1ccc2c(=O)c3ccccc3oc2c1 (stereo not drawn),inactive: 0.572%,
O=C(NCCc1ccccn1)c1c(-c2ccsc2)sc2ccccc12,inactive: 4.77%,
Fc1ccc2nc(Nc3nc4c(F)cc(F)cc4s3)sc2c1,inactive: -20.6%,
O=C(CCS(=O)(=O)c1ccccc1)Nc1nc2c(s1)COc1ccccc1-2,inactive: 5.27%,
O=C(Nc1ccccc1)c1cc([N+](=O)[O-])ccc1Cl,inactive: 4.32%,
O=c1cc(-c2ccco2)nc(SCc2cccc(Cl)c2)[nH]1,inactive: -0.452%,
Cc1cc(C)cc(OC(=O)CS(=O)c2ccc(C(F)(F)F)cc2[N+](=O)[O-])c1 (stereo not drawn),inactive: -16.8%,
Clc1cc(Cl)cc(Nc2ncnc(-n3cccc3)n2)c1,inactive: 8.55%,
Cc1cccc(NC(=S)NC(=O)c2cccs2)n1,inactive: 6%,
COC(=O)c1ccc2nc(-c3cccc(Br)c3)c(Cc3ccccc3OC)n2c1,inactive: -1.22%,
COCCNC(=O)c1ccc(-n2c(-c3ccccc3)cc3c2CCC(C)C3)cc1 (stereo not drawn),inactive: -2.26%,
O=C(Nc1nc2c(ccc3ccccc32)s1)c1ccco1,inactive: -0.36%,
N#Cc1cnc2cc(-c3ccccc3)nn2c1N,inactive: 9.63%,
S=C(NCc1ccco1)Nc1ccccn1,inactive: -4.48%,
CCOc1ccccc1NC(=O)C1COc2ccccc2O1 (stereo not drawn),inactive: -1.63%,
c1coc(-c2ccnc(-n3cccc3)n2)c1,inactive: -3.75%,
C#CCOc1ccc(/C=C2\SC(=S)N(Cc3cccnc3)C2=O)cc1,inactive: -21.8%,
CSc1ccccc1NC(=O)COC(=O)/C=C/c1ccco1,inactive: -3.1%,
Fc1cccc2sc(Nc3nc4ccccc4s3)nc12,inactive: 3%,
Cc1ccc(N=C2NC(=O)S/C2=C\c2ccco2)cc1,inactive: -1.78%,
O=C(Nc1c(O)c2ccccc2[nH]c1=O)c1ccco1,inactive: 1.15%,
c1ccc2c(c1)nnn2-c1ncnc2sccc12,inactive: 3.73%,
CCCn1c(-c2cccs2)nc2nc3ccccc3nc21,inactive: 5.71%,

# Random excerpt: 4 entries already listed.
SMILES,"activity change, negative = cytotoxicity",Potency
OCC1OC(n2cnc3c(NCc4ccccc4O)ncnc32)C(O)C1O (stereo not drawn),,active: 5.17 µM
O=C(/C=C/c1ccco1)Nc1ccc(Cl)c(-c2nc3cc(Cl)ccc3o2)c1,inactive: -23.6%,
Cc1ccc(N=C2NC(=O)S/C2=C\c2ccco2)cc1,inactive: -1.78%,
O=C(NCCc1ccccn1)c1c(-c2ccsc2)sc2ccccc12,inactive: 4.77%,

# Continued:

SMILES,"activity change, negative = cytotoxicity",Potency
NC(=O)N/N=C/c1ccccc1OC(=O)c1ccccc1Br,inactive: 3.21%,
FC(F)(F)c1nnc2c(Sc3ccccn3)nc3ccccc3n12,inactive: 10.5%,
Cc1cccc(-c2nnc(-c3cccc4ccccc34)o2)c1,inactive: 0.386%,
O=C(CN1C(=O)S/C(=C\c2ccccc2Cl)C1=O)NC1C=CS(=O)(=O)C1 (stereo not drawn),inactive: 3.21%,
Cc1cc(C)c2c(N)c(C(=O)c3ccc(Br)cc3)oc2n1,inactive: -19.8%,
O=C(Nc1cc(-c2nc3ncccc3o2)ccc1Cl)c1cccs1,inactive: -12.6%,
Cc1n[nH]c(=S)n1/N=C/c1ccc(-c2ccccc2[N+](=O)[O-])o1,inactive: 4.13%,
O=[N+]([O-])c1ccccc1/C=C/C=N/n1c(-c2ccco2)n[nH]c1=S,inactive: 9.42%,
Cc1ccc2ccc(C3C(=O)c4ccccc4C3=O)nc2c1,inactive: 3.2%,
O=C(COCc1cc(-c2ccc(F)cc2)on1)Nc1cc(Cl)ccc1O,inactive: -14.5%,
c1ccc(-c2cc3c(ccc4nonc43)nn2)cc1,inactive: 0.408%,
O=C1NC(=Nc2ccccc2)S/C1=C\C=C\c1ccco1,inactive: 2.3%,
O=C1/C(=C/c2ccccc2O)SC(=S)N1Cc1cccnc1,inactive: 4.53%,
CCc1ccc(/C=C/c2c([N+](=O)[O-])c(=O)n(C)c(=O)n2C)cc1,inactive: 5.21%,
CCOC(=O)CCn1c(=O)c2cccn2c2cccnc21,inactive: 7.7%,
Nc1nccc(-c2ccc(-n3cccc3)cc2)n1,inactive: 7.15%,
C#CCSc1nc(-c2cccs2)ccc1C#N,inactive: 1.12%,
Cc1cc(NC(=O)CC(C)(C)C)nc2c1c(=O)oc1ccccc12,inactive: 15.2%,
O=C(N/N=C\c1ccco1)Nc1cccc(Cl)c1,inactive: -10.8%,
COc1ccccc1NC(=O)/C(C#N)=C/c1cccn1C,inactive: 2.18%,
O=C(Nc1ccc(F)cc1)c1cc2ccccc2o1,inactive: -16.7%,
CC(=NNc1ccc2ccccc2n1)c1ccccc1O,inactive: -19.7%,
CN1CCN(C(=O)CCN2C(=O)/C(=C/c3cccc(Br)c3)SC2=S)CC1,inactive: 4.95%,
Cc1c(=O)n(OCc2ccccc2)c2ccccc2[n+]1[O-],inactive: 3.85%,

SMILES,"activity change, negative = cytotoxicity",Potency
N#CC(=C1C=CC(=NO)C(Cl)=C1)c1ccccc1,inactive: 2.92%,
O=C1c2cccc3cccc(c23)C(=O)N1Cc1ccco1,inactive: 6.26%,
O=C(NC(=S)Nc1ccc(Br)cn1)c1cccs1,inactive: 2%,
COc1cc2c(cc1NC(=O)c1ccco1)CCCC2,inactive: 9.72%,
C(=N\Nc1nc2ccccc2[nH]1)/c1c[nH]c2ccccc12,inactive: 11.7%,
Cc1c(C(=O)NCc2ccco2)oc2c(Cl)cccc12,inactive: -2.64%,
Cc1ccc(Cc2c(-c3ccco3)nc3c(C)cc(Br)cn23)cc1,inactive: 2.16%,
O=C(NCc1ccco1)c1ccccc1-c1nc(-c2ccccc2)no1,inactive: -21.8%,
COc1ccc(Cl)cc1C(=O)O/N=C(\N)c1ccccn1,inactive: -3.19%,
c1ccc2c(-c3nc4ncccc4o3)cccc2c1,inactive: -2%,
CC1(C)CC[C@]2(C(=O)n3ccnc3)CC[C@]3(C)[C@H](C(=O)C=C4[C@@]5(C)C=C(C#N)C(=O)C(C)(C)[C@@H]5CC[C@]43C)[C@@H]2C1,,active: 8.2 µM
COc1ccc([C@H]2Cc3cccc(O)c3C(=O)O2)cc1O,inactive: 1.16%,
O=C(CC1S/C(=N/N=C/c2ccco2)NC1=O)Nc1ccccc1 (stereo not drawn),inactive: 2.97%,
Cc1cccc(NC(=O)Nc2ccccc2[N+](=O)[O-])n1,inactive: 5.2%,
COc1ccc(-c2cc3ccccc3oc2=O)cc1NC(=O)c1ccc([N+](=O)[O-])o1,inactive: -9.05%,
O=C(/C=C/c1ccco1)NC(=S)Nc1nc(-c2ccc(Cl)cc2)cs1,inactive: -26.2%,
N#C/C(=C(/O)c1ccc(Br)s1)c1nc2ccccc2[nH]1,inactive: -1.87%,
CCCc1c(C(=O)N/N=C/c2cccs2)nnn1-c1nonc1N,inactive: 0.781%,
O=C(/C=C/c1ccccc1Cl)Nn1cnc2ccccc2c1=O,inactive: -1.79%,
O=C(Nc1cc(Br)ccc1O)c1cnn2c(C(F)F)cc(C3CC3)nc12,inactive: 14.6%,
Cc1cc(O)c(NC(=O)c2cc([N+](=O)[O-])ccc2Cl)cc1C,inactive: 1.19%,
Oc1ccccc1-n1nc2ccc3nonc3c2n1,inactive: 2.24%,
